Measured values taken from US4956363A, “Treatment of cognitive and behavioral disorders associated with aging and with dementia syndromes” (U C B S.A., priority 1988, dated 1990).

Key:
[1] = tested on: effects of scopolamine on the EEG, band from 6.4 to 9.6 Hz; assay: Inhibition of the effects of scopolamine on the electroencephalogram (EEG); assay type: in vivo, rats (male albino Sprague-Dawley SPF); conditions: scopolamine 0.5 mg/kg i.p. in rats; in words
Protocol: Male albino Sprague-Dawley SPF rats (160 to 200 g) are used in this test.
When the animals are 3 months old, 5 cortical electrodes are implanted permanently, aseptically and under a general anesthesia: one inert electrode, one left and one right frontal electrode, and one left and one right occipital electrode (P. ETEVENON, loc. cit.).
The test is carried out when the animals are about 15 months old. In the meantime, the animals are kept in individual cages. They are given water and food ad libitum and are subjected to a regular daily cycle comprising a period of darkness between 6 o'clock in the evening and 6 o'clock in the morning. […] The products are administered immediately before the EEG is recorded.
The rats are divided into groups of 8 animals and 16 samples of the EEG spectra are recorded over 5 seconds (two EEG spectra per animal). The spectra obtained are then analyzed by computer (rapid Fourier transform), which enables the average of the 16 measurements performed to be determined for each group and the overall intensity of the EEG spectrum and the distribution of this intensity (in %) in the various frequency bands to be deduced for each animal. […]

[2] = tested on: amnesia induced by scopolamine; assay: Multiple-trial passive avoidance: mnemic retention (amnesia induced by scopolamine); conditions: scopolamine alone
Protocol: To this end, the method of multiple-trial passive avoidance has been used. This method is well-known for evaluating the effects which a product exerts on the memory and learning (A. FINE et al., Proc. Natl. Acad. Sci. U.S.A., 82, (1985), 5227-5230).
The test is carried out on male Sprague-Dawley rats (160-200 g). which are kept in standard cages throughout the experiment.
The apparatus used is a transparent square cage with 35 cm sides and 25 cm high, fitted with a grid floor which can be electrified. An insulating rubber mat (10×17 cm) is placed on the floor in one of the corners of the cage.
Each animal is subjected to four tests at times 0, 4, 24 and 28 hours. In the first test (time 0), the animal is placed on the rubber mat and the time which it takes to decide to leave this position to explore the cage is recorded. After 20 seconds of exploration, the rat receives an electric shock (3 seconds duration) in the paws, causing a flight reaction. The rat is immediately removed from the apparatus and replaced in its original cage. In the course of the three subsequent tests (times: 4, 24 and 28 hours), the animal is replaced on the rubber mat and the time taken to leave this position is recorded. […]
The differences observed are analyzed statistically by the Mann-Whitney method.

For `CN1[C@@H]2C[C@@H](OC(=O)[C@H](CO)c3ccccc3)C[C@H]1[C@@H]1O[C@@H]12` [scopolamine], the “effect on the EEG spectrum” value [1] was “an increase in the intensity in the band at 8 Hz, a reduction in the intensity of the bands from 20.8 to 40 Hz and an increase in the overall intensity of the EEG spectrum” and the “period of remaining on the mat, group 3, summary” value [2] was < 180 s.
